Assay results taken from PubChem BioAssay AID2685 (National Center for Advancing Translational Sciences (NCATS), 2010).
The list shows a part of the results. Further columns of the screen follow, without active or inactive calls. Most of these compounds were active or inconclusive in the main read-out, so they are no random draw. The note in brackets gives the kind of curve behind each potency; many fits are weak.

Experiment: qHTS Assay for Lipid Storage Modulators in Drosophila S3 Cells;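 for cell number change: cells counted by Cell Tracker Red CMTPX staining in the red channel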
Conditions: BODIPY lipid droplet fluorescence, 18-24 h; for cell number change: measured here: cell count max response, cells fed with added oleic acid
Procedure, shortened: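 Drosophila S3 cells got compounds at several concentrations plus oleic acid (400 uM solution). Laser-scanning cytometry with 488 nm excitation read lipid droplets at 500-530 nm and cells at 575-640 nm. Percent activity was relative to 20 uM Triacsin C.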

[1] = measured here: lipid fluorescence (Fed channel) AC50, cells fed with added oleic acid
[2] = measured here: cell number channel AC50, cells fed with added oleic acid

| SMILES | cell number change | AC50 [1] | AC50 [2] |
| --- | --- | --- | --- |
| CN(CC(=O)Nc1ccc(F)cc1)C(=O)c1ccc(-c2ccc(Cl)cc2)o1 | -14.1% | – | – |
| CCC(C)[C@H](NC(=O)NCc1ccc(S(N)(=O)=O)cc1)C(=O)O (some centres undefined) | 26.1% | 16.4 µM [rising, single point] | – |
| CC(=O)c1c(C)[nH]c(C(=O)CSc2nnc(-c3ccccc3)n2Cc2ccc3c(c2)OCO3)c1C | -9.89% | 0.58 µM [rising, full curve] | 0.92 µM [rising, full curve] |
| COc1ccc(N(C)S(=O)(=O)c2cccc(C(=O)NCC(c3cccs3)N(C)C)c2)cc1 (centres undefined) | 11.4% | 3.66 µM [rising, single point] | – |
| Cc1cccc(C)c1NC(=S)Nc1ccc(F)cc1 | – | 0.00411 µM [rising, full curve, poor fit] | – |
| COCCNC(=O)NC(=O)COC(=O)c1ccc2[nH]c3c(c2c1)CCCC3 | -11.6% | – | – |
| O=C(CSCc1ccccc1Cl)Nc1c[nH]c(=O)[nH]c1=O | -12.6% | – | – |
| CCCc1nc2n[nH]c(N)c2c2c1CCCC2 | 4.4% | 0.82 µM [rising, full curve, poor fit] | – |
| O=C(O)CNC(=O)/C(=C/c1cccc([N+](=O)[O-])c1)NC(=O)c1ccco1 | -13.7% | 1.16 µM [falling, partial curve] | – |
| Cc1cnc(NC(=O)c2c(O)c3cccc4c3n(c2=O)CCC4)s1 | 2.55% | – | – |
| COc1cccc(C2CC(c3ccccc3OC)n3ncnc3N2)c1 (centres undefined) | -30.1% | – | – |
| Cc1cc(C)n(/N=C/c2cccs2)c(=O)c1C#N | -11.4% | – | – |
| Cc1nnc2ccc(-c3ccc(NS(=O)(=O)c4ccccc4[N+](=O)[O-])cc3)nn12 | -5.37% | – | – |
| COC(=O)C1=C(C)N(CC2CC2)C(=NCc2cc(OC)c(OC)c(OC)c2)N[C@H]1c1ccccc1 | 14.4% | 18.4 µM [rising, single point] | – |
| N=c1c2c(-c3ccccc3)c(-c3ccccc3)oc2ncn1CCN1CCOCC1 | -10.3% | 32.6 µM [falling, partial curve, poor fit] | – |
| COC(=O)c1[nH]c(=O)c2ccccc2c1OCc1ccccc1 | -0.905% | – | – |
| Brc1ccccc1OCCCOc1cccc2cccnc12 | -7.3% | 6.51 µM [rising, partial curve, poor fit] | – |
| COc1ccc(CSCCN)cc1Cl | – | 0.164 µM [falling, full curve, poor fit] | – |
| Cc1ccc(C)c(C(C)NC(=S)NCc2ccc(F)cc2)c1 (centres undefined) | – | – | 0.206 µM [falling, partial curve, poor fit] |
| Clc1cccc(CSc2ncn(-c3ccccc3)n2)c1 | -38.4% | 29.1 µM [falling, single point] | 25.9 µM [falling, single point] |

| SMILES | cell number change | AC50 [1] | AC50 [2] |
| --- | --- | --- | --- |
| O=C(/C=C/c1ccccc1)NC1CCS(=O)(=O)C1 (centres undefined) | – | 23.1 µM [rising, single point] | – |
| CCOC(=O)c1ccc(N2C(=O)CC(N(C)Cc3ccccc3)C2=O)cc1 (centres undefined) | 7.97% | – | – |
| N#CCC(=O)Nc1ccc(C(=O)NCCC(c2ccccc2)c2ccccc2)cc1 | -6.72% | – | – |
| CCC(=O)N1CCc2cc(S(=O)(=O)N(CC)c3cccc(C)c3)ccc21 | 6.51% | 9.2 µM [rising, partial curve, poor fit] | – |
| CCN(CC)CCN1C(=O)c2ccccc2NC1c1ccc(C)cc1 (centres undefined) | – | 6.51 µM [falling, single point] | – |
| CCn1nc(C(=O)OCC(=O)c2c[nH]c3ccccc23)c2ccccc2c1=O | -15.8% | 2.31 µM [rising, partial curve] | – |
| CCOC(=O)[C@H]1[C@H]2COc3ccc(C)cc3[C@@H]2N2C(=O)CN(Cc3ccc(OC)cc3)C(=O)[C@@]12C | -9.27% | 0.103 µM [rising, full curve, poor fit] | – |
| Clc1cccc(Nc2ncnc3c2cnn3-c2ccccc2)c1 | -161% | 29.1 µM [falling, single point] | 29.1 µM [falling, single point] |
| Cc1c(C(=O)C(=O)N2c3ccccc3CC2C)c2ccccc2n1C (centres undefined) | -64.2% | 29.1 µM [falling, single point] | 29.1 µM [falling, single point] |
| CCOC(=O)N1CCC(N2Cc3cccc(C(=O)O)c3C2=O)CC1 | -22.7% | 4.61 µM [falling, single point] | 0.82 µM [falling, full curve, poor fit] |
| Cc1ccc(-c2cc(C(=O)Nc3ccc(S(=O)(=O)Nc4onc(C)c4C)cc3)c3ccccc3n2)cc1 | – | 6.51 µM [rising, partial curve] | 5.17 µM [rising, single point] |
| COC(=O)C1C(c2ccc(N(C)C)cc2)C(C(=O)OC)S(=O)(=O)CS1(=O)=O (centres undefined) | -27.2% | – | – |
| COc1ccc2cc(C3c4cc(OC)c(OC)cc4CCN3C(=O)c3ccco3)c(=O)[nH]c2c1 (centres undefined) | -15.4% | 0.116 µM [falling, partial curve, poor fit] | – |
| CC1CCC2(CC1)NC(=S)N(c1ccccc1)N2 (centres undefined) | 9.61% | 0.164 µM [falling, full curve, poor fit] | – |
| CC(C)n1c(CN(C)Cc2ccccc2)nc2c1c(=O)n(C)c(=O)n2C | -53.9% | 4.11 µM [falling, full curve, poor fit] | 4.11 µM [falling, partial curve] |
| CCc1nc2scc(-c3ccc(C)cc3)c2c(=O)n1N | 17.1% | 0.146 µM [rising, full curve, poor fit] | – |
| CCOC(=O)/C=C/C(=O)N1CCN(C(=O)/C=C/C(=O)OCC)CC1 | -20% | 4.11 µM [falling, full curve, poor fit] | – |
| O=C(Cc1ccccc1)Nc1ccc(NC(=O)c2ccccc2)nc1 | 83.3% | – | 25.9 µM [rising, partial curve] |
| COc1cc(C2=NOC(C(=O)NC3CCCCC3)C2)cc(OC)c1OC (centres undefined) | 16.7% | – | – |
| CCN(CC)C(=O)c1sc(NC(=O)c2ccncc2)c(C(=O)OC)c1C | – | 0.461 µM [rising, full curve] | 0.411 µM [rising, partial curve, poor fit] |

Copied from the list.
cell number change, CCn1nc(C(=O)OCC(=O)c2c[nH]c3ccccc23)c2ccccc2c1=O reads -15.8%
cell number change, CCOC(=O)/C=C/C(=O)N1CCN(C(=O)/C=C/C(=O)OCC)CC1 reads -20%
